The text below walks through data of publication PMC7819943, “Rice protein-binding microarrays: a tool to detect cis-acting elements near promoter regions in rice”.

Some of the results follow.

The test deals with T1, OsSMF1 (Oryza sativa, UniProt Q6ZLB0 1-436).
T1 sequence: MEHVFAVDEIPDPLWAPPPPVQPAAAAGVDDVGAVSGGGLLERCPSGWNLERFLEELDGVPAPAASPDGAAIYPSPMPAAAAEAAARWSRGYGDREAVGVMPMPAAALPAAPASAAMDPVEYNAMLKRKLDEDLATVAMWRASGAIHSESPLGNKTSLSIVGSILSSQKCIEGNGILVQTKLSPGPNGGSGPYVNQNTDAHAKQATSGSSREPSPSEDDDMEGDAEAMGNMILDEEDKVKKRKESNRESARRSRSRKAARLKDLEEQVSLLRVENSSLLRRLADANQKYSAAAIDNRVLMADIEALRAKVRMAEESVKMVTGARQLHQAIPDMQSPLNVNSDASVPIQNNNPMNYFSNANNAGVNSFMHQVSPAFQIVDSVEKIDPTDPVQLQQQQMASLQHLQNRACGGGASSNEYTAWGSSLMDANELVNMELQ
Put plainly: protein-binding microarray (RPBM); PBS, 2% BSA, 51.3 ng/ul salmon testes DNA, 50 uM zinc acetate, 200 nM TF, 25 C, 1 h; high values mean tight binding. The settings on record: protein: recombinant; tags: N-terminal polyhistidine and DsRed monomer fusion (pET32a); chain copies: 2; label: CyDye5-dUTP incorporated in the synthesized complementary strand; 3' TTTTT single-stranded linker to array surface; dsDNA, one strand shown. Put shortly:
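Transcription factors were each fused at the N-terminus to a polyhistidine tag plus DsRed and expressed in E. coli BL21-CodonPlus before Ni–NTA purification. Binding to a double-stranded custom Agilent array was carried out with 200 nM protein at 25 °C for 1 h in PBS, 2% BSA, salmon testes DNA and 50 µM zinc acetate. The binding signal is per-feature fluorescence intensity, in arbitrary units, on an Axon 4000B scanner.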
Turning to “GATCTACGATCTGCGAGCTCAGCACTGCACGTTGTAGCCACGGAGTCACCTAGTGCAG”, the binding signal was 3350 fluorescence intensity (a.u.). Then “CATTATTGTTTTATTATCGTGACACATGTTGTTCTCATAACGGAGTCACCTAGTGCAG”, with 3230 fluorescence intensity (a.u.); and “CCCCACGACCACCGCCTCATTGGTCCACATAAGCCGCAGCCGGAGTCACCTAGTGCAG”, with 3610 fluorescence intensity (a.u.); and “TTGCAACCTCCGACAACGGCGTTGTCAGTGTCAACAGCGGCGGAGTCACCTAGTGCAG”, with 4290 fluorescence intensity (a.u.). For “ACACTAGGCCCAAGGCAAGCCCACCACTCGTGCTCGTAACCGGAGTCACCTAGTGCAG”, the binding signal was 3190 fluorescence intensity (a.u.). With “TGAACACGAACGCGACGCTTCTTCTGTCACGTACGCCCGTCGGAGTCACCTAGTGCAG”, the binding signal is 3200 fluorescence intensity (a.u.). Consider “GAAGGCGGCGGGGTGGCGAAGTGGCGAGGAGGAGACGGGGCGGAGTCACCTAGTGCAG”, for which the binding signal was 4910 fluorescence intensity (a.u.). To “CTACATCGGCGAGCTCGGGGACACGTTCGCCGGGCTGTGGCGGAGTCACCTAGTGCAG” belongs 3840 fluorescence intensity (a.u.); to “TGAGGGCCGCCACGTCCTCATGGCCTCCGCCCCATCGGAGCGGAGTCACCTAGTGCAG”, 7660 fluorescence intensity (a.u.); to “CCAGCCCAGCCCAGCCCATGTCGTGTCGTCTTCCCCAGTCCGGAGTCACCTAGTGCAG”, 3960 fluorescence intensity (a.u.). On to “CCGAATGCATGGAAGTGATCAAGTGAACTAGAGGCAGAGGCGGAGTCACCTAGTGCAG”, for which the binding signal was 25500 fluorescence intensity (a.u.). Then “CCCCAGAAAGTCCCCATATTTCTAGGAACTTCCGTTCTAGCGGAGTCACCTAGTGCAG”, with 13900 fluorescence intensity (a.u.). For “TGCACACCCTATCCCGAAATACACATCACGCTCACGGGGCCGGAGTCACCTAGTGCAG”, the binding signal was 5630 fluorescence intensity (a.u.). On to “ATCAGGATGCCTCAGGCGAGCCACGTGACCACGTCTGATGCGGAGTCACCTAGTGCAG”, for which the binding signal is 6150 fluorescence intensity (a.u.).

For “GTGGTCCCCAGATGTCATACATCCATGCTAGCTTGCTCCGCGGAGTCACCTAGTGCAG”, the binding signal was 5090 fluorescence intensity (a.u.). With “GTAATTATTGCTAGTGGGTGATGATGTGGCATGGTTGCATCGGAGTCACCTAGTGCAG”, the binding signal is 25200 fluorescence intensity (a.u.). In the case of “ACAAGGCATTGGTATCTGACGAGGTCTCTTGCCGTGTAGTCGGAGTCACCTAGTGCAG”, the binding signal is 3420 fluorescence intensity (a.u.).

“GGCGGCGGCGTCAGCGGGCACGTGGGCGATGGTGGTGCACCGGAGTCACCTAGTGCAG”: the binding signal is 4070 fluorescence intensity (a.u.).

Take “ACCGTAGCATAATTACAACTGACGCGTGAGTTGTCTGGATCGGAGTCACCTAGTGCAG”: the binding signal is 4920 fluorescence intensity (a.u.). As to “ATTAGGATGTGACGTGTGTACGTGTAGTGATTATGCATAACGGAGTCACCTAGTGCAG”, the binding signal was 9190 fluorescence intensity (a.u.). “TACGGTGGTAGGAGAGGCCACGTGTGCGTCCCAGCAAGTGCGGAGTCACCTAGTGCAG”: the binding signal was 7820 fluorescence intensity (a.u.). For “CAGCACCAACAGCCACTCCTCCGGGCACGTCTACTCCGACCGGAGTCACCTAGTGCAG”, the binding signal is 28300 fluorescence intensity (a.u.).

As to “TTAATAATATTGTTGATATTCAATCTATTATTCAACATTTCGGAGTCACCTAGTGCAG”, the binding signal was 23900 fluorescence intensity (a.u.). On to “TGTTGGACACGGCCCATAAGGTGGAATCATGCTGGGCCTGCGGAGTCACCTAGTGCAG”, for which the binding signal was 20200 fluorescence intensity (a.u.). Regarding “ATCGTCGAGGCTGAGGACGGTGACGAGGAATGGAAGGAGCCGGAGTCACCTAGTGCAG”, the binding signal is 3780 fluorescence intensity (a.u.). To “ATCAGACCATATGTGACTCACTGCCTCACCCTAGCTTAGTCGGAGTCACCTAGTGCAG” belongs 8180 fluorescence intensity (a.u.); to “TCCGTCGAAGCAGTTTACCGTTGGTGATTCATTCAGCGATCGGAGTCACCTAGTGCAG”, 3870 fluorescence intensity (a.u.). As to “ACAGCTCTCTCAGATCCAAAGCCGTGGAGAAATCGCGCGACGGAGTCACCTAGTGCAG”, the binding signal was 23700 fluorescence intensity (a.u.). “GTGGGGCGATCAAGCGGCGACTGCTCCGGCGAAGCGGCCCCGGAGTCACCTAGTGCAG”: the binding signal is 3280 fluorescence intensity (a.u.). Then “TCGAGGTGGGAGCGGCGGTGACGGCATCAGCGCGCGGTGGCGGAGTCACCTAGTGCAG”, with 3350 fluorescence intensity (a.u.). Take “AATGTGACAACCCATCATTTCACCGACTAAACGAGCCCTCCGGAGTCACCTAGTGCAG”: the binding signal was 3560 fluorescence intensity (a.u.).

For “TAGCGACATACACGTAAGTACGTTACCAGATACAGCCCAGCGGAGTCACCTAGTGCAG”, the binding signal was 7240 fluorescence intensity (a.u.). Turning to “CTTTTAAGAACAGGTTGATATGACTACATCTCTTTCAGCACGGAGTCACCTAGTGCAG”, the binding signal is 3370 fluorescence intensity (a.u.). Take “ATAAGACATCGTTCTCTGCATGACGCGTGCGTCGATCGATCGGAGTCACCTAGTGCAG”: the binding signal is 4990 fluorescence intensity (a.u.).

“GCCGCACTATAAATTAGTCATGCACAGTTGCATCCATGGCCGGAGTCACCTAGTGCAG”: the binding signal was 4560 fluorescence intensity (a.u.). For the sequence “CAACGCGTAGCGTCAGCCAGACGAACCAGAGTCTACTGTACGGAGTCACCTAGTGCAG”, the binding signal was 3810 fluorescence intensity (a.u.). To “TCAGATCAATCTCCCTCCGTCGCCAACATCACCTTGTTTGCGGAGTCACCTAGTGCAG” belongs 3960 fluorescence intensity (a.u.); to “TACTCCAATTTCTGTGCTTATCACTGCTTCAGTGTTTGCCCGGAGTCACCTAGTGCAG”, 10700 fluorescence intensity (a.u.); to “GTAACTTATATATACGATAAAAGTAACTTACACATATAATCGGAGTCACCTAGTGCAG”, 16700 fluorescence intensity (a.u.). With “AAAGGCTAGTCGCTACCTCATCAGCATCAGTTACAGCTTCCGGAGTCACCTAGTGCAG”, the binding signal was 3590 fluorescence intensity (a.u.). With “TGCCAAGTCGCCGGTGCCTTGTCAATCAAGCTCCAGGTGGCGGAGTCACCTAGTGCAG”, the binding signal is 4160 fluorescence intensity (a.u.). For the sequence “CTCACATGTCATACACACACTGCGTCTTGGAGTCCGTGCTCGGAGTCACCTAGTGCAG”, the binding signal is 4810 fluorescence intensity (a.u.).
